# Drug screen on melanoma cell lines: apoptosis marker

From a melanoma drug combination screen (doi:10.1371/journal.pone.0140310); values rounded.

Drugs:
U73122: COc1ccc2c(c1)CCC1C2CCC2(C)C(NCCCCCCN3C(=O)C=CC3=O)CCC12 (stereo not given) at 2000 nM
TCS401: O=C(O)C(=O)Nc1sc2c(c1C(=O)O)CCNC2 at 8330 nM
stibogluconate: O=C(O)[C@@H]1[O][Sb](=[O])([O][Sb]2(=[O])[O][C@H]([C@H](O)CO)[C@H](O)[C@H](C(=O)O)[O]2)[O][C@H]([C@H](O)CO)[C@@H]1O (stereo not given in full) at 10000 nM
bortezomib: CC(C)C[C@H](NC(=O)[C@H](Cc1ccccc1)NC(=O)c1cnccn1)B(O)O at 5 nM
OSI-906: C[C@]1(O)C[C@@H](c2nc(-c3ccc4ccc(-c5ccccc5)nc4c3)c3c(N)nccn32)C1 at 2000 nM
FK866: O=C(/C=C/c1cccnc1)NCCCCC1CCN(C(=O)c2ccccc2)CC1 at 50 nM
tipifarnib: Cn1cncc1[C@@](N)(c1ccc(Cl)cc1)c1ccc2c(c1)c(-c1cccc(Cl)c1)cc(=O)n2C at 50 nM
cediranib: COc1cc2c(Oc3ccc4[nH]c(C)cc4c3F)ncnc2cc1OCCCN1CCCC1 at 2000 nM
NVP-BEZ235: Cn1c(=O)n(-c2ccc(C(C)(C)C#N)cc2)c2c3cc(-c4cnc5ccccc5c4)ccc3ncc21 at 20 nM

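Human melanoma cell lines in 1,536-well plates were treated with a pair of drugs for 72 h, then fixed, stained and imaged. Values are the share of nuclei positive for cleaved PARP as a percentage of the same share in the DMSO control: 100 is the control level, higher means more apoptosis. Concentrations were fixed for each drug; these are the higher of two levels. These are primary screening values without error estimates. The marker varies much from line to line, for technical or biological reasons.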 This is part of the screen, not chosen by result. A dash means that no value is listed here.

| # | Combination | LB2518-MEL | COLO 792 | A375 | WM115 | UACC-62 | COLO 829 |
|---|---|---|---|---|---|---|---|
| 1 | stibogluconate + tipifarnib | - | 77.0 | - | 130 | 106 | 171 |
| 2 | TCS401 + tipifarnib | 93.2 | 141 | 84.4 | 78.2 | 119 | 83.5 |
| 3 | stibogluconate + U73122 | 201 | 85.8 | 47.5 | 176 | 86.3 | 210 |
| 4 | cediranib + TCS401 | 59.1 | 116 | 17.7 | 109 | 115 | 164 |
| 5 | OSI-906 + stibogluconate | 63.0 | 54.4 | 93.7 | 71.7 | 198 | 75.3 |
| 6 | TCS401 + NVP-BEZ235 | 106 | 89.0 | 82.8 | 66.5 | 179 | 119 |
| 7 | OSI-906 + U73122 | 61.5 | 115 | 188 | 109 | 173 | 92.5 |
| 8 | tipifarnib + FK866 | 857 | 540 | - | 824 | 159 | 332 |
| 9 | NVP-BEZ235 + bortezomib | 3850 | 262 | 88.0 | 908 | 272 | 1330 |
| 10 | NVP-BEZ235 + FK866 | 226 | 417 | 486 | 238 | 215 | 455 |
| 11 | cediranib + bortezomib | 2870 | 658 | - | 470 | 141 | 1120 |
| 12 | tipifarnib + U73122 | 82.3 | 192 | 122 | 197 | 98.8 | 73.0 |
| 13 | OSI-906 + cediranib | 55.5 | 86.9 | - | 41.7 | 93.0 | 58.8 |
| 14 | cediranib + FK866 | 552 | 1550 | - | 109 | 48.2 | 506 |
| 15 | FK866 + OSI-906 | 336 | 262 | 89.7 | 152 | 148 | 434 |
| 16 | bortezomib + tipifarnib | - | 449 | - | 1100 | 208 | 2490 |
| 17 | tipifarnib + OSI-906 | 36.4 | 133 | - | 53.8 | 104 | 138 |
| 18 | bortezomib + stibogluconate | 9690 | 334 | 84.7 | 2140 | 299 | 5600 |
| 19 | bortezomib + OSI-906 | 1690 | 501 | 91.0 | 1160 | 497 | 3580 |
| 20 | bortezomib + TCS401 | 614 | 241 | 49.9 | 173 | 291 | 1420 |
| 21 | TCS401 + FK866 | 466 | 250 | 16.6 | 30.9 | 201 | 226 |
| 22 | NVP-BEZ235 + tipifarnib | 174 | 167 | - | 73.5 | 222 | 40.6 |
| 23 | FK866 + bortezomib | 4820 | 895 | 79.9 | 4250 | 274 | 6440 |
| 24 | TCS401 + U73122 | 193 | 26.3 | 150 | 135 | 45.4 | 123 |
| 25 | U73122 + FK866 | 181 | 671 | 163 | 186 | 395 | 529 |
| 26 | OSI-906 + NVP-BEZ235 | 302 | 151 | 67.7 | 174 | 311 | 163 |
| 27 | cediranib + U73122 | 147 | 51.4 | 106 | 122 | 285 | 71.2 |
| 28 | NVP-BEZ235 + U73122 | 194 | 130 | 396 | 102 | 308 | 58.9 |
| 29 | TCS401 + OSI-906 | 120 | 146 | 50.1 | 92.9 | 165 | 157 |
| 30 | NVP-BEZ235 + cediranib | 77.8 | 259 | - | 114 | 186 | 90.8 |
| 31 | tipifarnib + cediranib | 115 | 138 | - | 106 | 143 | 44.1 |
| 32 | TCS401 + stibogluconate | 102 | 74.7 | 44.9 | 111 | 70.8 | 67.5 |
| 33 | stibogluconate + FK866 | 128 | 694 | 76.7 | 28.7 | 118 | 522 |